In US20200054764A1 (priority 2016, published 2020):

Assay: general procedure: solution-phase peptide synthesis; 2-(7-azabenzotriazol)-N,N,N',N'-tetramethyluronium hexafluorophosphate / N,N-dii
Details: late stage modification step

Q: Which step yield does the source give for “(S)-2-((2R,3R)-3-((1S,3S,5S)-2-((3R,4S,5S)-4-((S)—N,3-dimethyl-2-((S)-3-methyl-2-(methylamino)butanamide)butanamide)-3-methoxy-5-methylheptanoyl)-2-azabicyclo[3.1.0]hexane-3-yl)-3-methoxy-2-methylpropanamide)-3-(2-fluorophenyl)propionic acid” here?
A: Its step yield is 20%.
